Values quoted from earlier work as cited in patent publication US20220339136A1, “LIPOSOMAL TROPONOID COMPOUND FORMULATIONS” (United States Government As Represented By The Department …, priority 2019, published 2022).
At least one structure is not confirmed: it was looked up by name or label, or the drawing left a doubt.

Assays:
Conditions in all cases: cited from earlier work
[1] = test system: WT S. aureus (ATCC 25923)
[2] = test system: Vancomycin Intermediate Staphylococcus aureus (VISA) strain AR219; note: key: R: resistance; S: sensitive; I: intermediate; NS: nonsusceptible
[3] = test system: Vancomycin Intermediate Staphylococcus aureus (VISA) strain AR228; note: key: R: resistance; S: sensitive; I: intermediate; NS: nonsusceptible

## C[C@H]1COc2c(N3CCN(C)CC3)c(F)cc3c(=O)c(C(=O)O)cn1c23 [LVX, Levofloxacin]
[1]
  Antimicrobial susceptibility testing pattern (AST): S
[2]
  Antimicrobial susceptibility testing pattern (AST): R
[3]
  Antimicrobial susceptibility testing pattern (AST): R

## CN(C)[C@@H]1C(O)=C(C(N)=O)C(=O)[C@@]2(O)C(O)=C3C(=O)c4c(O)cccc4[C@@](C)(O)[C@H]3C[C@@H]12 [TET, Tetracycline]
[1]
  Antimicrobial susceptibility testing pattern (AST): S
[2]
  Antimicrobial susceptibility testing pattern (AST): R
[3]
  Antimicrobial susceptibility testing pattern (AST): S
